Results deposited as PubChem BioAssay AID1508597 (Cure First, 2020).

Test: 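Survival screen with siRNA in ovarian cancer cells derived from patients, with or without rucaparib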 (primary screen)
System: human ovarian carcinoma lines grown from tumours: OCI-P5x (papillary serous) and OCI-C5x (clear cell)
Reagents: siRNA pool against human genes, 1.25 pmol siRNA per well
Timing: 72 h or 96 h, depending on the cell culture
Treatment: rucaparib 20 µM (about IC30) or vehicle, present until read-out
Detection: 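Luminescent ATP-based viability assay read 72 or 96 h after transfection, depending on culture, given as normalised percent viability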
Scale: viability, normalised: higher = more viable cells remaining
Call rule: 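Active when normalised viability falls below 80 percent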
Meaning of the calls: active = viability under 80%; inactive = viability 80% or more
Here is a random part of about 2,100 reagents tested. 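Calls flag viability under 80% in either arm, not effects specific to rucaparib; the reference for percent is not stated.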 Not given: the 100% reference.

PRMT7 (protein arginine methyltransferase 7) [SID405527205], rucaparib or vehicle Rucaparib, cell line OCI-C5x (clear cell), technical replicate 1: viability, normalised (%) = 60.5; Outcome = active
PRMT7 (protein arginine methyltransferase 7) [SID405527205], rucaparib or vehicle Rucaparib, cell line OCI-C5x (clear cell), technical replicate 2: viability, normalised (%) = 41.3; Outcome = active
PRMT7 (protein arginine methyltransferase 7) [SID405527205], rucaparib or vehicle Rucaparib, cell line OCI-C5x (clear cell), technical replicate 3: viability, normalised (%) = 47.9; Outcome = active
PRMT7 (protein arginine methyltransferase 7) [SID405527205], rucaparib or vehicle Rucaparib, cell line OCI-P5x (serous), technical replicate 1: viability, normalised (%) = 50.1; Outcome = active
PRMT7 (protein arginine methyltransferase 7) [SID405527205], rucaparib or vehicle Rucaparib, cell line OCI-P5x (serous), technical replicate 2: viability, normalised (%) = 46.8; Outcome = active
PRMT7 (protein arginine methyltransferase 7) [SID405527205], rucaparib or vehicle Rucaparib, cell line OCI-P5x (serous), technical replicate 3: viability, normalised (%) = 42.6; Outcome = active
PRMT7 (protein arginine methyltransferase 7) [SID405527205], rucaparib or vehicle Vehicle, cell line OCI-C5x (clear cell), technical replicate 1: viability, normalised (%) = 47.8; Outcome = active
PRMT7 (protein arginine methyltransferase 7) [SID405527205], rucaparib or vehicle Vehicle, cell line OCI-C5x (clear cell), technical replicate 2: viability, normalised (%) = 36.2; Outcome = active
PRMT7 (protein arginine methyltransferase 7) [SID405527205], rucaparib or vehicle Vehicle, cell line OCI-C5x (clear cell), technical replicate 3: viability, normalised (%) = 53.7; Outcome = active
PRMT7 (protein arginine methyltransferase 7) [SID405527205], rucaparib or vehicle Vehicle, cell line OCI-P5x (serous), technical replicate 1: viability, normalised (%) = 39.4; Outcome = active
PRMT7 (protein arginine methyltransferase 7) [SID405527205], rucaparib or vehicle Vehicle, cell line OCI-P5x (serous), technical replicate 2: viability, normalised (%) = 50.1; Outcome = active
PRMT7 (protein arginine methyltransferase 7) [SID405527205], rucaparib or vehicle Vehicle, cell line OCI-P5x (serous), technical replicate 3: viability, normalised (%) = 77.8; Outcome = active

The list goes on, starting with the last 5 of the part before.
PRMT7 (protein arginine methyltransferase 7) [SID405527205], rucaparib or vehicle Vehicle, cell line OCI-C5x (clear cell), technical replicate 2: viability, normalised (%) = 36.2; Outcome = active
PRMT7 (protein arginine methyltransferase 7) [SID405527205], rucaparib or vehicle Vehicle, cell line OCI-C5x (clear cell), technical replicate 3: viability, normalised (%) = 53.7; Outcome = active
PRMT7 (protein arginine methyltransferase 7) [SID405527205], rucaparib or vehicle Vehicle, cell line OCI-P5x (serous), technical replicate 1: viability, normalised (%) = 39.4; Outcome = active
PRMT7 (protein arginine methyltransferase 7) [SID405527205], rucaparib or vehicle Vehicle, cell line OCI-P5x (serous), technical replicate 2: viability, normalised (%) = 50.1; Outcome = active
PRMT7 (protein arginine methyltransferase 7) [SID405527205], rucaparib or vehicle Vehicle, cell line OCI-P5x (serous), technical replicate 3: viability, normalised (%) = 77.8; Outcome = active
ULK3 (unc-51 like kinase 3) [SID405527906], rucaparib or vehicle Rucaparib, cell line OCI-C5x (clear cell), technical replicate 1: viability, normalised (%) = 63.7; Outcome = active
ULK3 (unc-51 like kinase 3) [SID405527906], rucaparib or vehicle Rucaparib, cell line OCI-C5x (clear cell), technical replicate 2: viability, normalised (%) = 49.9; Outcome = active
ULK3 (unc-51 like kinase 3) [SID405527906], rucaparib or vehicle Rucaparib, cell line OCI-C5x (clear cell), technical replicate 3: viability, normalised (%) = 64.6; Outcome = active
ULK3 (unc-51 like kinase 3) [SID405527906], rucaparib or vehicle Rucaparib, cell line OCI-P5x (serous), technical replicate 1: viability, normalised (%) = 76.6; Outcome = active
ULK3 (unc-51 like kinase 3) [SID405527906], rucaparib or vehicle Rucaparib, cell line OCI-P5x (serous), technical replicate 2: viability, normalised (%) = 57.8; Outcome = active
ULK3 (unc-51 like kinase 3) [SID405527906], rucaparib or vehicle Rucaparib, cell line OCI-P5x (serous), technical replicate 3: viability, normalised (%) = 67.4; Outcome = active
ULK3 (unc-51 like kinase 3) [SID405527906], rucaparib or vehicle Vehicle, cell line OCI-C5x (clear cell), technical replicate 1: viability, normalised (%) = 59.9; Outcome = active
ULK3 (unc-51 like kinase 3) [SID405527906], rucaparib or vehicle Vehicle, cell line OCI-C5x (clear cell), technical replicate 2: viability, normalised (%) = 59.1; Outcome = active
ULK3 (unc-51 like kinase 3) [SID405527906], rucaparib or vehicle Vehicle, cell line OCI-C5x (clear cell), technical replicate 3: viability, normalised (%) = 51.3; Outcome = active
ULK3 (unc-51 like kinase 3) [SID405527906], rucaparib or vehicle Vehicle, cell line OCI-P5x (serous), technical replicate 1: viability, normalised (%) = 70.5; Outcome = active
ULK3 (unc-51 like kinase 3) [SID405527906], rucaparib or vehicle Vehicle, cell line OCI-P5x (serous), technical replicate 2: viability, normalised (%) = 50.7; Outcome = active
ULK3 (unc-51 like kinase 3) [SID405527906], rucaparib or vehicle Vehicle, cell line OCI-P5x (serous), technical replicate 3: viability, normalised (%) = 66.7; Outcome = active
ZNF830 (zinc finger protein 830) [SID405526658], rucaparib or vehicle Rucaparib, cell line OCI-C5x (clear cell), technical replicate 1: viability, normalised (%) = 60.4; Outcome = active
ZNF830 (zinc finger protein 830) [SID405526658], rucaparib or vehicle Rucaparib, cell line OCI-C5x (clear cell), technical replicate 2: viability, normalised (%) = 75.8; Outcome = active
ZNF830 (zinc finger protein 830) [SID405526658], rucaparib or vehicle Rucaparib, cell line OCI-C5x (clear cell), technical replicate 3: viability, normalised (%) = 56; Outcome = active
ZNF830 (zinc finger protein 830) [SID405526658], rucaparib or vehicle Rucaparib, cell line OCI-P5x (serous), technical replicate 1: viability, normalised (%) = 51.8; Outcome = active
ZNF830 (zinc finger protein 830) [SID405526658], rucaparib or vehicle Rucaparib, cell line OCI-P5x (serous), technical replicate 2: viability, normalised (%) = 52.3; Outcome = active
ZNF830 (zinc finger protein 830) [SID405526658], rucaparib or vehicle Rucaparib, cell line OCI-P5x (serous), technical replicate 3: viability, normalised (%) = 53.9; Outcome = active
ZNF830 (zinc finger protein 830) [SID405526658], rucaparib or vehicle Vehicle, cell line OCI-C5x (clear cell), technical replicate 1: viability, normalised (%) = 94.5; Outcome = inactive
ZNF830 (zinc finger protein 830) [SID405526658], rucaparib or vehicle Vehicle, cell line OCI-C5x (clear cell), technical replicate 2: viability, normalised (%) = 48; Outcome = active
ZNF830 (zinc finger protein 830) [SID405526658], rucaparib or vehicle Vehicle, cell line OCI-C5x (clear cell), technical replicate 3: viability, normalised (%) = 50.5; Outcome = active
ZNF830 (zinc finger protein 830) [SID405526658], rucaparib or vehicle Vehicle, cell line OCI-P5x (serous), technical replicate 1: viability, normalised (%) = 69.4; Outcome = active
ZNF830 (zinc finger protein 830) [SID405526658], rucaparib or vehicle Vehicle, cell line OCI-P5x (serous), technical replicate 2: viability, normalised (%) = 38.5; Outcome = active
ZNF830 (zinc finger protein 830) [SID405526658], rucaparib or vehicle Vehicle, cell line OCI-P5x (serous), technical replicate 3: viability, normalised (%) = 69.3; Outcome = active
